Here are results for five molecules from patent US20240262919A1 (SHANGHAITECH UNIVERSITY, published 2024).

Experiment [1] addresses T1, antigen of the affinity maturation selections of antibody 3131 (IL-18Rβ, construct not named) (UniProt O95256).
T1 sequence (looked up): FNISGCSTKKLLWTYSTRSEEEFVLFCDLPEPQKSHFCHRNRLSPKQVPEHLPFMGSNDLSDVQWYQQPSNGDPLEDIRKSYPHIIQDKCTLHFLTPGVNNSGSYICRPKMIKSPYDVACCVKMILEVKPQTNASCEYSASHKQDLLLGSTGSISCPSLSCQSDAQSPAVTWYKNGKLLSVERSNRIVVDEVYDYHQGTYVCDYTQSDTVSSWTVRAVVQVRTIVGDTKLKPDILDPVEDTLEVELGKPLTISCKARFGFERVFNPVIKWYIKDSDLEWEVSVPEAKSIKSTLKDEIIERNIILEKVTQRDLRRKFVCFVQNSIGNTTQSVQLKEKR
The experiment can be described thus: affinity-based solution-phase phage display selection, decreasing antigen concentration.

The target in experiment [2] is T2, human IL-18Rβ ECD Fc fusion (118-AP-100, R&D Systems) (human) (UniProt O95256).
T2 sequence: T1 sequence (looked up)
As to the kind of experiment: ELISA on recombinant human IL-18Rβ, normalised OD 450 nm, Fab with PBS or with saturating IgG 3131 [top plot]. (In an ELISA, binding on a coated surface is turned into a signal by an enzyme label.)

Experiment [3] deals with T2, human IL-18Rβ ECD Fc fusion (118-AP-100, R&D Systems) (human). As to the kind of experiment: ELISA on recombinant human IL-18Rβ, normalised OD 450 nm, Fab with PBS or with saturating IgG 3131 [middle plot].

Numbering of substitutions follows the chain as printed. Results are given in words; binding and its absence hold for the method and conditions named. Some entries that bind do so weakly or less than the wild type. For part of these data: Tags and fused reporters may be left off the sequences shown.

B1: 3131 AM2-10 (Fab, V domains shown)
VH: EVQLVESGGGLVQPGGSLRLSCAASGFNLYYSSMHWVRQAPGKGLEWVASIYSSNGNTGYADSVKGRFTISADTSKNTAYLQMNSLRAEDTAVYYCARSSFSHGYGWYGLDYWGQGTLVTVSS
VL: DIQMTQSPSSLSASVGDRVTITCRASQSVSSAVAWYQQKPGKAPKLLIYSASSLYSGVPSRFSGSRSGTDFTLTISSLQPEDFATYYCQQYGYHYAGLITFGQGTKVEIK
As to B1, the binding entry in experiment [1] and in experiment [2] was “binds” throughout.

B2: 3131 AM2-16 (Fab, V domains shown)
VH: B1 VH with N55Y, N57Y, G59Y
VL: B1 VL with A51T
For the molecule B2, the binding result in experiment [1] and in experiment [3] was “binds” each time.

B3: 3131 AM2-29 (Fab, V domains shown)
VH: B1 VH with N55Y, N57Y, G59Y
VL: B1 VL with A51T
In the case of B3, the binding entry in experiment [1] and in experiment [3] was “binds” throughout.

B4: 3131 AM2-11 (Fab, V domains shown)
VH: B1 VH
VL: B1 VL
In the case of B4, the binding result in experiment [1] and in experiment [2] was “binds” throughout.

B5: 3131 AM2-O-46 (Fab, V domains shown)
VH: B1 VH with N28S, N55S, N57D, G59H
VL: B1 VL with K45R, S50G, Y95G
Turning to B5, in experiment [1], the binding entry was “binds”.
